Assay results: patent US20220324943A1
No constants are given. Whether binding was seen depends on the method and setting. Sequences can lack the tags named with a protein.

Molecular target: VEGFA
Assay: sensorgram (SPR by the legend, axis in nm); FGFR1-CCD injected over immobilized VEGFA as null ligand

B1: FGFR1-CCD fusion protein (receptor)
chain: RPSPTLPEQAQPWGAPVEVESFLVHPGDLLQLRCRLRDDVQSINWLRDGVQLAESNRTRITGEEVEVQDSVPADSGLYACVTSSPSGSDTTYFSVNVSDALPSSEDDDDDDDSSSEEKETDNTKPNPVAPYWTSPEKMEKKLHAVPAAKTVKFKCPSSGTPNPTLRWLKNGKEFKPDHRIGGYKVRYATGSIIMDSVVPSDKGNYTCIVENEYGSINHTYQLDVVERSPHRPILQAGLPANKTVALGSNVEFMCKVYSDPQPHIQWLKHIEVNGSKIGPDNLPYVQILKTAGVNTTDKEMEVLHLRNVSFEDAGEYTCLAGNSIGLSHHSAWLTVLEALEERPAVMLKEFMGYQGPPGPPGPPGIPGNHGNNGNNGATGHEGAKGEKGDKGDLGPRGERGQHGPKGEKGYPGIPGYCGPPGPPGPPGIPGNHGNNGNNGATGHEGAKGEKGDKGDLGPRGERGQHGPKGEKGYPGIPDYKDDDDKLQISSTVAAAHHHHHHV
With B1 the binding was “no binding”.
